Results reported in the supplement of paper PMC10849652.
The other results are listed elsewhere or left out.

Sequences of proteins named here, by UniProt entry; tags and fusion partners are left off. A change or cut given only in a name is not applied to a line headed by its entry.
UniProt Q9Y3E7, whole entry, looked up: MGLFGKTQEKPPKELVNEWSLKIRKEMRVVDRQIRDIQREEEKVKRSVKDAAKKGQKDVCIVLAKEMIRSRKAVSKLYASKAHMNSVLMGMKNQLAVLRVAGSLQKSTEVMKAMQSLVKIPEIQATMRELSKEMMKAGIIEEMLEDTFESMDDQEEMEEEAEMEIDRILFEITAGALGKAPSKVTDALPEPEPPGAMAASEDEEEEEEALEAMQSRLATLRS
UniProt P23528, whole entry, looked up: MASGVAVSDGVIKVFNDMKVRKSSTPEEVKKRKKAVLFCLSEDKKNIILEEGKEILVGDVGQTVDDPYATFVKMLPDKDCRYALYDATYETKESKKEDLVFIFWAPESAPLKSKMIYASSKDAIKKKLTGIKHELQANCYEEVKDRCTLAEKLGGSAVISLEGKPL
UniProt O14735: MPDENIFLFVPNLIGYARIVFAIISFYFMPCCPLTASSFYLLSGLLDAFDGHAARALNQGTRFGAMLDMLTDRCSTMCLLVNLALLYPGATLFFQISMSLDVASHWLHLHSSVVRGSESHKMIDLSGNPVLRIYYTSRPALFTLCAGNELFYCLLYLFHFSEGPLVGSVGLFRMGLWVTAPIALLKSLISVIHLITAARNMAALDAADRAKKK
UniProt P26374: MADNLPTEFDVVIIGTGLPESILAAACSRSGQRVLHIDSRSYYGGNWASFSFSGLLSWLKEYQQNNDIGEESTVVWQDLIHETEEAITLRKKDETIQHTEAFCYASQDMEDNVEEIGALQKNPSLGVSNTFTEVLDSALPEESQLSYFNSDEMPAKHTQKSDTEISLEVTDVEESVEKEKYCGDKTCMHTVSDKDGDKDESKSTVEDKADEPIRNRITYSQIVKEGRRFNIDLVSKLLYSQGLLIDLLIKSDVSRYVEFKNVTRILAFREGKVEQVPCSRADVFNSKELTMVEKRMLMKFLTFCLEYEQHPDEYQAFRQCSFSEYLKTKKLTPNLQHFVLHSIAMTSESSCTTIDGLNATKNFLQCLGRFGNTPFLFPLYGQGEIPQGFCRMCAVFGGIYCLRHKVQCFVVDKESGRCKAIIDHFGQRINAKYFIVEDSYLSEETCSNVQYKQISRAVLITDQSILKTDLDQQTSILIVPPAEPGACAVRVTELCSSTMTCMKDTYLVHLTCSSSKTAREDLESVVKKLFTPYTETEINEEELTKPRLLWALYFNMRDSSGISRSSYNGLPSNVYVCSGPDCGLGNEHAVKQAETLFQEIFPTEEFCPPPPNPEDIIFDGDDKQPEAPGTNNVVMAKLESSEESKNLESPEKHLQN
UniProt Q9Y281, whole entry, looked up: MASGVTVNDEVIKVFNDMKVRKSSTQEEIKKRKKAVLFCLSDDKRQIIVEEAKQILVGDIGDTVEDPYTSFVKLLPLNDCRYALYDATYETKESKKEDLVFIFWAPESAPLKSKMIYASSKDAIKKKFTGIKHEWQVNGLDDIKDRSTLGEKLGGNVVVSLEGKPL
UniProt Q9H5V8, whole entry, looked up: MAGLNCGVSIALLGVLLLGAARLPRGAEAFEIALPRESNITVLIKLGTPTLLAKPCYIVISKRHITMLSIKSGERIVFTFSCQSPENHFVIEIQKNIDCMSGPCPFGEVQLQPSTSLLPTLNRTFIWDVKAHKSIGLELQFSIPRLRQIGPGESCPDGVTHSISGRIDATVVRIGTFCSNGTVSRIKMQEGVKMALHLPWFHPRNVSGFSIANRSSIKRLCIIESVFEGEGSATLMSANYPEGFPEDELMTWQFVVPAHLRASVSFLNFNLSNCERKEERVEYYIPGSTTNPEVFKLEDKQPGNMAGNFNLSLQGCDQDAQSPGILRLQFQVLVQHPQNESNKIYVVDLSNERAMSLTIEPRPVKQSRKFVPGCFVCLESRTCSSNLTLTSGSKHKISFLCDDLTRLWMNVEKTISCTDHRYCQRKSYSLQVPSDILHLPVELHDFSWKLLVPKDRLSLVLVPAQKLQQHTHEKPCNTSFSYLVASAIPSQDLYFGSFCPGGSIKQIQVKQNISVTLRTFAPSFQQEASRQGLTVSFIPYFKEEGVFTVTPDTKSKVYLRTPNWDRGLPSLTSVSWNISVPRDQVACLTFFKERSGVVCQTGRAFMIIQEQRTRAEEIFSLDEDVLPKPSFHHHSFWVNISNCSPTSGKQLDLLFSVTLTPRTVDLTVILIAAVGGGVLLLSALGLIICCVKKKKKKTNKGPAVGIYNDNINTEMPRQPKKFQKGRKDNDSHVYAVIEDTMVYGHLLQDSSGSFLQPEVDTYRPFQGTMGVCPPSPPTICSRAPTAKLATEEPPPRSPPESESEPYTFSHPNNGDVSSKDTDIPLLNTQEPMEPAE
UniProt Q7LBR1: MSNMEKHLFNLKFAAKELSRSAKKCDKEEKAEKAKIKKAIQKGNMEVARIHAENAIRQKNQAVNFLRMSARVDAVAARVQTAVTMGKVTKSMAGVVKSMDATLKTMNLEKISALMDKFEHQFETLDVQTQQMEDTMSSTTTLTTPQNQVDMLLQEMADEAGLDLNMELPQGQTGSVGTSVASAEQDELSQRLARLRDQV
UniProt Q9Y6A4: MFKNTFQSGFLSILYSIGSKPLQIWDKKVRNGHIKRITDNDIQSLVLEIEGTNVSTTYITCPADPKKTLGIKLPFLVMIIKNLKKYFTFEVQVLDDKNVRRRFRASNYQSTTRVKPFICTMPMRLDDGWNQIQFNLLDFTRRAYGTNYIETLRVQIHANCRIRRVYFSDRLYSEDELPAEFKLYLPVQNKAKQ
UniProt P08603, whole entry, looked up: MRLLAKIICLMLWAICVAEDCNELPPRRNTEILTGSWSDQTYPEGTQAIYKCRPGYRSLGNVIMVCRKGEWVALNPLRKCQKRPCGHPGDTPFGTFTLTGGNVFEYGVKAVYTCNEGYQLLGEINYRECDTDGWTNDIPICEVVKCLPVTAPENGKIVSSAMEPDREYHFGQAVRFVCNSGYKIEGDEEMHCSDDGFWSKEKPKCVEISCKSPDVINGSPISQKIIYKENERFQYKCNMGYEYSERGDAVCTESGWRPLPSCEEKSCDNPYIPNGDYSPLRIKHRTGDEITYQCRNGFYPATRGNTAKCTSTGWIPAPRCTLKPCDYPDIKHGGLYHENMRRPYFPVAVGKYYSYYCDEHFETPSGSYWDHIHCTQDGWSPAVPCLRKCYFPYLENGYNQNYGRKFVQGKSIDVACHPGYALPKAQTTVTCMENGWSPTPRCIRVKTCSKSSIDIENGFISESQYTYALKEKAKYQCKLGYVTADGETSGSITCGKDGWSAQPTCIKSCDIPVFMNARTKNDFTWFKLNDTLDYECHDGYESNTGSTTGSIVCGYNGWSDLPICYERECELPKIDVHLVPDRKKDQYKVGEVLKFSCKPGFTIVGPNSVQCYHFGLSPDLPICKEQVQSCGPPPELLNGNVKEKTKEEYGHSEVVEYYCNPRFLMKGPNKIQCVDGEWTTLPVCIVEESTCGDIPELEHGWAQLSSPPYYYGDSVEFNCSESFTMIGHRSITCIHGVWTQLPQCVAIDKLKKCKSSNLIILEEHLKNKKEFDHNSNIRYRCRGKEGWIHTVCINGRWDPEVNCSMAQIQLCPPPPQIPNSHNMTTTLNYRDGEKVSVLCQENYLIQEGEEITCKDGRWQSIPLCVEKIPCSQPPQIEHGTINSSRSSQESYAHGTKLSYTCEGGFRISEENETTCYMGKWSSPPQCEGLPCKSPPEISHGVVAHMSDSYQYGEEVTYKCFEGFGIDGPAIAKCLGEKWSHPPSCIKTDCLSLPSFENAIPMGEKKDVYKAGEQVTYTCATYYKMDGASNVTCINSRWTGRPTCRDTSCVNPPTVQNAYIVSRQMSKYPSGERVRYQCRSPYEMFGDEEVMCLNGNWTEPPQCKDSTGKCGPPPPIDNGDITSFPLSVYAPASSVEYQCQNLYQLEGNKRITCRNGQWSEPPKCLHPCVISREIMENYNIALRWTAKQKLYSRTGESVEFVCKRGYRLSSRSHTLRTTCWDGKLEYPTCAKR
UniProt Q9UKY7: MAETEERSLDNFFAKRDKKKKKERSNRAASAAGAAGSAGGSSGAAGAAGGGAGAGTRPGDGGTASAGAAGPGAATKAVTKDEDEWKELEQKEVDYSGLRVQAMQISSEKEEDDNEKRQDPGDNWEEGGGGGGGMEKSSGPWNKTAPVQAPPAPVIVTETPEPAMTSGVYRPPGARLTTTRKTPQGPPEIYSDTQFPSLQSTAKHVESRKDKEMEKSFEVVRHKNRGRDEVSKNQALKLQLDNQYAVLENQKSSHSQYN
UniProt Q9BWS9: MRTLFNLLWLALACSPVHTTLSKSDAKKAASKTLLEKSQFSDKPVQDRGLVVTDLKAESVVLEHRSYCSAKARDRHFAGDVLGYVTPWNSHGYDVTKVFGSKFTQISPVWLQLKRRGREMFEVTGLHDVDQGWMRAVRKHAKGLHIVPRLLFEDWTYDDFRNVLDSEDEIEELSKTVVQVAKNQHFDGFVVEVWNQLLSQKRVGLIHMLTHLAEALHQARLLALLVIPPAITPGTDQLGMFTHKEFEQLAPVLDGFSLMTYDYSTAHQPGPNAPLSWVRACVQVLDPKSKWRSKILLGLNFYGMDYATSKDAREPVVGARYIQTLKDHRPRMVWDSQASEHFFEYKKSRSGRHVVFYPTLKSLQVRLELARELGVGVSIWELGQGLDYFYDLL
UniProt Q9NX63: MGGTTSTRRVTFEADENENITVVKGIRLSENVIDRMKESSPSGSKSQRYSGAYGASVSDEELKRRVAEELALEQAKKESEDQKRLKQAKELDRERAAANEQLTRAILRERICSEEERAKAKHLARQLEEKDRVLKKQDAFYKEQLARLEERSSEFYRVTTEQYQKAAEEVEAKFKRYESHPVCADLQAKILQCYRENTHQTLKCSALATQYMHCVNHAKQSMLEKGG
UniProt Q5SW79: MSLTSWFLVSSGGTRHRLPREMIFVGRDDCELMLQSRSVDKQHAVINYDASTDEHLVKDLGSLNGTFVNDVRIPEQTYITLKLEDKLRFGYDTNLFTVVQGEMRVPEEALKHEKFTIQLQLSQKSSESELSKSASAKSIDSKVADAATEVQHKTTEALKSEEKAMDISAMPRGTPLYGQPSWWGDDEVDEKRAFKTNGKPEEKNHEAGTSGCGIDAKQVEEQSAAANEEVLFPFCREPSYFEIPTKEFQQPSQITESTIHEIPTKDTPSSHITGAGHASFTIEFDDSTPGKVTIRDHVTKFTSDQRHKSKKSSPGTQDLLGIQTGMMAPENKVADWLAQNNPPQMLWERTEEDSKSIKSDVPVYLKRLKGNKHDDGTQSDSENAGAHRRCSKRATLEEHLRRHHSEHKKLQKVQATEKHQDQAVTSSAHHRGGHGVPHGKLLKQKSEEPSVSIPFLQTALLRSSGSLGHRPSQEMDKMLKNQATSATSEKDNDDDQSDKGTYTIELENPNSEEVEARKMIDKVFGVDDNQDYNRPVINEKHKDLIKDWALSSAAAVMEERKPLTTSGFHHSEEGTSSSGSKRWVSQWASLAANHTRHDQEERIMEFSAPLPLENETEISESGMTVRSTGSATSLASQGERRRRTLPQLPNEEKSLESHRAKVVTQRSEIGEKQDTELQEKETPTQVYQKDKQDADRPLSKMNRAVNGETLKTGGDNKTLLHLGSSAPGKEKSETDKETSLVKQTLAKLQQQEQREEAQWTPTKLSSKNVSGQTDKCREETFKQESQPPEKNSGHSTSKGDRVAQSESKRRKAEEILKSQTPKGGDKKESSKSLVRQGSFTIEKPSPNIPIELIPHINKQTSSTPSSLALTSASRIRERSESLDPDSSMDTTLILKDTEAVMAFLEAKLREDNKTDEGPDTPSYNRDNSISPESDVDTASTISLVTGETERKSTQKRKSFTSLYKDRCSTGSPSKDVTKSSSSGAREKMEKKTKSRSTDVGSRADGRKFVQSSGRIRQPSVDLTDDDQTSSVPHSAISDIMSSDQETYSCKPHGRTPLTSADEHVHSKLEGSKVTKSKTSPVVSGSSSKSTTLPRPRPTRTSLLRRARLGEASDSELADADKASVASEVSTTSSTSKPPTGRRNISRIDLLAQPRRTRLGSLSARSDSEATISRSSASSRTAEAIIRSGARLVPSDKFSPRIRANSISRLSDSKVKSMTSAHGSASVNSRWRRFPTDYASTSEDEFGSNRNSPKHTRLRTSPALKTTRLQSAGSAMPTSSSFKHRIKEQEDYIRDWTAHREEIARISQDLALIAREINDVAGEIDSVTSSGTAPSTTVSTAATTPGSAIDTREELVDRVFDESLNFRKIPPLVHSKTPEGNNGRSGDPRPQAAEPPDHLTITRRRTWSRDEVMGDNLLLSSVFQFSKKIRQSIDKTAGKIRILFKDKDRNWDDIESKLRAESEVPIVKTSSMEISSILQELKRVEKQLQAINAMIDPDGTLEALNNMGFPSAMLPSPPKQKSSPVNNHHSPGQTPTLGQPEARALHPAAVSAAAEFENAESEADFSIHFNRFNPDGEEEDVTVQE

Experiments:
Experiment in all cases: log2 fold change, soluble protein after heating vs DMSO (PISA); higher = thermal stabilisation; K562 cells, 10 uM, 30 min; active = over 0.2 and 3.5 SD of the protein, either way, in both replicates (recomputed)
[1] = compound: CC1=C(C=C(C=C1)NC(=O)C2=CC(=CC=C2)C(C)(C)C#N)NC3=CC4=C(C=C3)N=CN(C4=O)C
In short: (§1)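 Aliquots of K562 cells (2×10^6 cells/mL) treated with 10 μM compound for 30 min were heated for 3 min over 48°C-58°C. After pooling and extraction in PBS with 0.5% NP-40 at 4°C, soluble protein from a 21,000xg, 90 min spin was quantified by TMTpro 16plex LC-MS/MS with channel sums equalised. Thermal stability is expressed against control samples, from duplicates, as a log2 fold change.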

[2] = compound: CC1=C(C=C(C=C1)NC(=O)C2=CC(=CC=C2)N(C)C)NC(=O)C3=CC=C(C=C3)O
In short: as §1

[3] = compound: CC1=CC=C(C=C1)SC2=C3C=C(SC3=CN=C2)C(=O)N
In short: as §1

[4] = compound: CC1=NC(=CC=C1)C2=C(N=C(N2)C(C)(C)C)C3=CC4=NC=CN=C4C=C3
In short: as §1

[5] = compound: CCCCN(Cc1ccc(C(=O)NO)cc1)C(=O)Nc1ccccc1 [Nexturastat A]
In short: as §1

[6] = compound: CCCS(=O)(=O)Nc1ccc(F)c(C(=O)c2c[nH]c3ncc(-c4ccc(Cl)cc4)cc23)c1F [vemurafenib]
In short: as §1

[7] = compound: CCCS(=O)(=O)Nc1ccc(F)c(C(=O)c2c[nH]c3ncc(Cl)cc23)c1F
In short: as §1

[8] = compound: CCCc1cc(C)[nH]c(=O)c1CNC(=O)c1cc(-c2ccnc(N3CCN(C)CC3)c2)cc2c1cnn2C(C)C
In short: as §1

[9] = compound: CCN(CC)Cc1ccc2cc(COC(=O)Nc3ccc(C(=O)NO)cc3)ccc2c1 [givinostat]
In short: as §1

[10] = compound: CCN(CCCOc1ccc2c(Nc3cc(CC(=O)Nc4cccc(F)c4)[nH]n3)ncnc2c1)CCOP(=O)(O)O [barasertib]
In short: as §1

[11] = compound: CC[C@@H]1C(=O)N(C)c2cnc(Nc3ccc(C(=O)NC4CCN(C)CC4)cc3OC)nc2N1C1CCCC1
In short: as §1

[12] = compound: CC[C@@H]1C(=O)N(C)c2cnc(Nc3ccc(C(=O)N[C@H]4CC[C@H](N5CCN(CC6CC6)CC5)CC4)cc3OC)nc2N1C(C)C [volasertib]
In short: as §1

[13] = compound: CC[C@H](C)N1C=C(C2=C(C=C(C=C21)C3=CN=C(C=C3)N4CCNCC4)C(=O)NCC5=C(C=C(NC5=O)C)C)C
In short: as §1

[14] = compound: CC[C@H](C)[C@@H](C(=O)N[C@@H]([C@@H](C)O)C(=O)N[C@@H](CC(C)C)C(=O)[C@]1(CO1)C)NC(=O)[C@H]([C@@H](C)CC)N(C)C(=O)C [epoxomicin]
In short: as §1

[15] = compound: CCn1c(C(=O)N(C2CC2)C2CC2)cc2c3c(ncn3C)c(Nc3cc(C)n(C)n3)nc21
In short: as §1

[16] = compound: CCn1cc(-c2ccnc3[nH]c(-c4cccc(CN(C)C)c4)cc23)c(-c2ccc(NC(=O)N(C)C)cc2)n1
In short: as §1

[17] = compound: CN(C)CC(=O)Nc1ccc2[nH]c(=O)c3ccccc3c2c1
In short: as §1

[18] = compound: CN(CCOC1=CC=C(C=C1)C[C@H]2C(=O)NC(=O)S2)C3=CC=CC=N3 (racemic) [rosiglitazone]
In short: as §1

[19] = compound: CN1C2=C(C3=C1C(=O)N(N=C3)CC4=CC(=CC=C4)N)SC(=C2)S(=O)C
In short: as §1

[20] = compound: CN1CCC(CNc2ccc3ncc(-c4cccc(OC(F)(F)F)c4)n3n2)CC1
In short: as §1

Measured: log2 fold change

CHMP3 (UniProt Q9Y3E7)
inactive: [1] -0.016 | [2] 0.03 | [3] 0.013 | [4] -0.021 | [5] -0.095 | [6] -0.021 | [7] 0.007 | [8] -0.122 | [9] -0.021 | [10] 0.039 | [11] -0.115 | [12] -0.101 | [13] 0.006 | [14] 0 | [15] 0.034 | [16] -0.036 | [17] -0.068 | [18] 0.011 | [19] -0.021 | [20] -0.126

CFL1 (UniProt P23528)
inactive: [1] 0.11 | [2] -0.017 | [3] -0.006 | [4] 0.031 | [5] -0.073 | [6] 0.014 | [7] -0.002 | [8] 0.006 | [9] -0.035 | [10] 0.025 | [11] -0.115 | [12] 0.056 | [13] 0.044 | [14] 0.079 | [15] 0.039 | [16] -0.025 | [17] 0.001 | [18] -0.018 | [19] -0.04 | [20] 0.054

CDIPT (UniProt O14735)
inactive: [1] 0.102 | [2] 0.037 | [3] -0.03 | [4] -0.038 | [5] 0.008 | [6] 0.021 | [7] 0.077 | [8] -0.03 | [9] -0.017 | [10] 0.01 | [11] -0.083 | [12] 0.048 | [13] -0.005 | [14] 0.139 | [15] 0.003 | [16] 0.148 | [17] 0.139 | [18] -0.029 | [19] -0.074 | [20] -0.063

CHML (UniProt P26374)
inactive: [1] -0.004 | [2] -0.016 | [3] 0.04 | [4] 0.015 | [5] -0.036 | [6] 0.014 | [7] 0.071 | [8] -0.065 | [9] -0.088 | [10] 0.019 | [11] 0 | [12] -0.086 | [13] 0.008 | [14] -0.004 | [15] -0.045 | [16] -0.055 | [17] -0.002 | [18] 0.028 | [19] -0.07 | [20] 0.036

CFL2 (UniProt Q9Y281)
inactive: [1] 0.062 | [2] -0.034 | [3] -0.024 | [4] 0 | [5] -0.151 | [6] -0.011 | [7] -0.049 | [8] -0.143 | [9] 0.063 | [10] 0.022 | [11] 0.001 | [12] 0.047 | [13] -0.041 | [14] -0.098 | [15] -0.01 | [16] -0.065 | [17] -0.016 | [18] -0.003 | [19] -0.086 | [20] 0.122

CDC73 (UniProt Q6P1J9)
inactive: [1] -0.503 | [2] 0 | [3] -0.067 | [4] -0.055 | [5] 0.111 | [6] 0.129 | [7] 0.037 | [8] 0.282 | [9] 0.078 | [10] 0.045 | [11] -0.134 | [12] -0.251 | [13] 0.239 | [14] -0.209 | [15] -0.138 | [16] 0.104 | [17] 0.024 | [18] -0.01 | [19] 0.137 | [20] -0.309

CDCP1 (UniProt Q9H5V8)
inactive: [1] 0.038 | [2] 0.017 | [3] -0.025 | [4] -0.015 | [5] 0.014 | [6] 0.014 | [7] -0.053 | [8] -0.026 | [9] 0.02 | [10] -0.006 | [11] 0.087 | [12] -0.011 | [13] -0.016 | [14] -0.022 | [15] -0.02 | [16] 0.043 | [17] 0.023 | [18] 0.02 | [19] -0.125 | [20] 0.179

CHMP1B (UniProt Q7LBR1)
inactive: [1] -0.033 | [2] 0.026 | [3] 0.033 | [4] -0.034 | [5] 0.046 | [6] -0.097 | [7] 0.028 | [8] -0.074 | [9] 0.039 | [10] 0.008 | [11] 0.017 | [12] -0.173 | [13] -0.078 | [14] -0.026 | [15] 0.05 | [16] -0.012 | [17] -0.092 | [18] 0.008 | [19] -0.009 | [20] -0.034

CHAF1B (UniProt Q13112)
inactive: [1] 0.009 | [2] 0.016 | [3] -0.01 | [4] -0.038 | [5] -0.013 | [6] -0.061 | [7] -0.025 | [8] -0.036 | [9] -0.01 | [10] -0.013 | [11] 0.019 | [12] 0.02 | [13] -0.053 | [14] -0.016 | [15] 0.024 | [16] -0.012 | [17] -0.029 | [18] 0.007 | [19] -0.037 | [20] -0.014

CFAP20 (UniProt Q9Y6A4)
inactive: [1] -0.043 | [2] 0.004 | [3] -0.049 | [4] -0.038 | [5] 0.134 | [6] -0.011 | [7] 0.021 | [8] -0.107 | [9] 0.019 | [10] -0.044 | [11] 0.11 | [12] -0.002 | [13] 0.041 | [14] -0.113 | [15] -0.028 | [16] 0.08 | [17] -0.002 | [18] -0.003 | [19] 0.113 | [20] -0.006

CFH (UniProt P08603)
inactive: [1] 0.025 | [2] 0.012 | [3] -0.006 | [4] -0.013 | [5] 0.013 | [6] -0.025 | [7] -0.051 | [8] 0.053 | [9] -0.081 | [10] -0.023 | [11] 0.059 | [12] 0.023 | [13] -0.113 | [14] -0.054 | [15] 0.115 | [16] 0.103 | [17] -0.066 | [18] -0.075 | [19] -0.028 | [20] 0.146

CDV3 (UniProt Q9UKY7)
inactive: [1] 0.047 | [2] 0.027 | [3] -0.038 | [4] 0.179 | [5] -0.079 | [6] 0.013 | [7] -0.07 | [8] -0.017 | [9] 0.002 | [10] -0.01 | [11] -0.017 | [12] 0.103 | [13] -0.01 | [14] 0.047 | [15] 0.031 | [16] 0.006 | [17] -0.021 | [18] -0.028 | [19] -0.043 | [20] 0.036

CHID1 (UniProt Q9BWS9)
inactive: [1] 0.018 | [2] 0.023 | [3] -0.001 | [4] -0.056 | [5] 0.092 | [6] -0.058 | [7] -0.03 | [8] 0.051 | [9] 0.028 | [10] -0.034 | [11] -0.011 | [12] -0.012 | [13] -0.022 | [14] 0.05 | [15] 0.045 | [16] 0.011 | [17] -0.052 | [18] 0.009 | [19] 0.026 | [20] 0.084

Quoted from the entries so far (2 entries):
CDV3 (UniProt Q9UKY7)
inactive: [1] 0.047 | [2] 0.027 | [3] -0.038 | [4] 0.179 | [5] -0.079 | [6] 0.013 | [7] -0.07 | [8] -0.017 | [9] 0.002 | [10] -0.01 | [11] -0.017 | [12] 0.103 | [13] -0.01 | [14] 0.047 | [15] 0.031 | [16] 0.006 | [17] -0.021 | [18] -0.028 | [19] -0.043 | [20] 0.036

CHID1 (UniProt Q9BWS9)
inactive: [1] 0.018 | [2] 0.023 | [3] -0.001 | [4] -0.056 | [5] 0.092 | [6] -0.058 | [7] -0.03 | [8] 0.051 | [9] 0.028 | [10] -0.034 | [11] -0.011 | [12] -0.012 | [13] -0.022 | [14] 0.05 | [15] 0.045 | [16] 0.011 | [17] -0.052 | [18] 0.009 | [19] 0.026 | [20] 0.084

More results follow.

CHCHD3 (UniProt Q9NX63)
inactive: [1] -0.007 | [2] 0.021 | [3] 0.136 | [4] 0.006 | [5] -0.078 | [6] -0.031 | [7] -0.054 | [8] -0.037 | [9] -0.053 | [10] -0.002 | [11] -0.028 | [12] 0.002 | [13] 0.002 | [14] -0.005 | [15] 0.009 | [16] 0.043 | [17] -0.01 | [18] -0.006 | [19] -0.056 | [20] -0.028

CEP170 (UniProt Q5SW79)
inactive: [1] 0.032 | [2] 0.013 | [3] -0.084 | [4] -0.065 | [5] 0.158 | [6] 0.007 | [7] -0.014 | [8] 0.064 | [9] 0.05 | [10] -0.035 | [11] 0.037 | [12] 0.16 | [13] 0.042 | [14] -0.101 | [15] 0.002 | [16] 0.104 | [17] -0.061 | [18] -0.063 | [19] 0.129 | [20] -0.082
